Experimental data as given in PubChem BioAssay AID248 (DTP/NCI, 2004).
The list does not hold the whole screen: it covers a few groups of compounds. Other doses and runs of a compound may be missing. T/C: endpoint of the treated group in % of that of the vehicle group. Some doses have a count of surviving animals in place of a T/C: the source holds a T/C of zero for them, seemingly a mark for toxic or unscored doses. Some survivor counts are full or nearly so, which does not show that the dose was tolerated: survival well below the control is almost never listed, so the zero probably covers shortened survival too. Counts of survivors are from the toxicity check (mostly the fifth day) where no day follows; animals may have died later. Schedules are NCI's codes, taken here to give the interval after Q, in days (D) or hours (H), and the number of doses after X. Some schedule codes hold Z or #, which are not explained here. Some entries hold several experiments; their values stand side by side, smallest first. Where survival is the endpoint, this PubChem deposit counts one and a half times the control or more as active, and values a quarter to a half above the control carry no call in these data; other NCI protocols may use other cut-offs. Some entries show no survivor count and are marked so; the dose need not have been tolerated. Some T/C values carry the count of animals alive at the toxicity check (mostly the fifth day); where neither a count nor a note follows, no animal had died by that day.

System: L1210 leukemia ip in BDF1 mice, survival T/C
Experiment: NCI In Vivo Anticancer Drug Screen. Data for tumor model L1210 Leukemia (intraperitoneal) in B6D2F1 (BDF1) mice
Conditions: T/C endpoint: mean survival time, higher T/C = longer survival
[1] = dose: 100.0 mg/kg/injection, schedule: Q04DX003 (ip), vehicle: saline with Tween-80
[2] = dose: 200.0 mg/kg/injection, schedule: Q04DX003 (ip), vehicle: saline with Tween-80
[3] = dose: 400.0 mg/kg/injection, schedule: Q04DX003 (ip), vehicle: saline with Tween-80
[4] = dose: 100.0 mg/kg/injection, schedule: Q04DX003 (ip), vehicle: saline
[5] = dose: 200.0 mg/kg/injection, schedule: Q04DX003 (ip), vehicle: saline
[6] = dose: 400.0 mg/kg/injection, schedule: Q04DX003 (ip), vehicle: saline
[7] = dose: 45.0 mg/kg/injection, schedule: Q01DX Z (ip), vehicle: methylcellulose (MC)
[8] = dose: 100.0 mg/kg/injection, schedule: Q01DX009 (ip), vehicle: saline
[9] = dose: 200.0 mg/kg/injection, schedule: Q01DX009 (ip), vehicle: saline
[10] = dose: 400.0 mg/kg/injection, schedule: Q01DX009 (ip), vehicle: saline

With O=[N+]([O-])c1ccc(Cl)c2c1no[n+]2[O-] the T/C (dose: 10.0 mg/kg/injection, schedule: Q04DX003 (ip), vehicle: saline with Tween-80) was 100 % of control, the T/C (dose: 20.0 mg/kg/injection, schedule: Q04DX003 (ip), vehicle: saline with Tween-80) was 100 % of control [3 of 4 alive] and the survivor count (dose: 40.0 mg/kg/injection, schedule: Q04DX003 (ip), vehicle: saline with Tween-80) was 3 of 4.

O=C(O)c1c([N+](=O)[O-])cc([N+](=O)[O-])c(-c2c([N+](=O)[O-])cc([N+](=O)[O-])c(C(=O)O)c2[N+](=O)[O-])c1[N+](=O)[O-].O=C1CC2OCC=C3CN4CCC56c7ccccc7N1C5C2C3CC46 was tested, and the T/C (dose: 0.78 mg/kg/injection, schedule: Q01DX009 (ip), vehicle: Klucel (hydroxypropylcellulose) (HPC)) was 98 % of control [survivor count not shown], the T/C (dose: 1.56 mg/kg/injection, schedule: Q01DX009 (ip), vehicle: Klucel (hydroxypropylcellulose) (HPC)) was 96 % of control [survivor count not shown] and the T/C (dose: 1.56 mg/kg/injection, schedule: Q04DX003 (ip), vehicle: Klucel (hydroxypropylcellulose) (HPC)) was 113 % of control [survivor count not shown]. For the same compound, the T/C (dose: 3.12 mg/kg/injection, schedule: Q01DX009 (ip), vehicle: Klucel (hydroxypropylcellulose) (HPC)) was 91 % of control [survivor count not shown] and the T/C (dose: 3.12 mg/kg/injection, schedule: Q04DX003 (ip), vehicle: Klucel (hydroxypropylcellulose) (HPC)) was 95 % of control [survivor count not shown].

In the case of CCOP(=S)(OCC)SCCCl, the T/C (dose: 12.5 mg/kg/injection, schedule: Q04DX003 (ip), vehicle: saline with Tween-80) is reported as 100 % of control, the T/C (dose: 25.0 mg/kg/injection, schedule: Q04DX003 (ip), vehicle: saline with Tween-80) is reported as 104 % of control and the T/C (dose: 50.0 mg/kg/injection, schedule: Q04DX003 (ip), vehicle: saline with Tween-80) is reported as 103 % of control [5 of 6 alive]. For the same compound, the survivor count [1] was 3 of 6, the survivor count [2] was 0 of 6 and the survivor count [3] was 0 of 6.

O=C(Nc1ccccc1[N+](=O)[O-])c1cc([N+](=O)[O-])cc([N+](=O)[O-])c1 was tested, and the T/C (dose: 12.5 mg/kg/injection, schedule: Q01DX009 (ip), vehicle: Klucel (hydroxypropylcellulose) (HPC)) was 92 % of control, the T/C (dose: 25.0 mg/kg/injection, schedule: Q01DX009 (ip), vehicle: Klucel (hydroxypropylcellulose) (HPC)) was 90 % of control and the T/C (dose: 25.0 mg/kg/injection, schedule: Q04DX003 (ip), vehicle: Klucel (hydroxypropylcellulose) (HPC)) was 100 % of control. The T/C (dose: 50.0 mg/kg/injection, schedule: Q01DX009 (ip), vehicle: Klucel (hydroxypropylcellulose) (HPC)) was 89 % of control and the T/C (dose: 50.0 mg/kg/injection, schedule: Q04DX003 (ip), vehicle: Klucel (hydroxypropylcellulose) (HPC)) was 97 % of control.

With O=c1cc(CN2CCN(CCCl)CC2)[nH]c(=O)[nH]1 the T/C [4] was 90 % of control [3 of 4 alive], the T/C [5] was 101 % of control and the survivor count [6] was 4 of 4.

In the case of CCCCSP(=O)(CC)OCC (stereo unspecified), the T/C (dose: 0.5 mg/kg/injection, schedule: Q01DX001 (ip), vehicle: saline) is reported as 92 % of control [survivor count not shown], the T/C (dose: 1.0 mg/kg/injection, schedule: Q01DX001 (ip), vehicle: saline) is reported as 97 % of control [survivor count not shown] and the T/C (dose: 2.0 mg/kg/injection, schedule: Q01DX001 (ip), vehicle: saline) is reported as 94 % of control [survivor count not shown]. For the same compound, the T/C (dose: 4.0 mg/kg/injection, schedule: Q01DX001 (ip), vehicle: saline) was 96 % of control [survivor count not shown].

In the case of ClP(Cc1ccccc1)Cc1ccccc1, the T/C (dose: 75.0 mg/kg/injection, schedule: Q01DX001 (ip), vehicle: carboxymethylcellulose (CMC)) is reported as 101 % of control, the T/C (dose: 150.0 mg/kg/injection, schedule: Q01DX001 (ip), vehicle: carboxymethylcellulose (CMC)) is reported as 95 % of control and the T/C (dose: 300.0 mg/kg/injection, schedule: Q01DX001 (ip), vehicle: carboxymethylcellulose (CMC)) is reported as 101 % of control.

In the case of CC1=CC(C)(C)P(=O)(Cl)O1 (stereo unspecified), the T/C (dose: 100.0 mg/kg/injection, schedule: Q01DX009 (ip), vehicle: saline with Tween-80) is reported as 100 % of control, the T/C [1] is reported as 97 % of control and the T/C (dose: 200.0 mg/kg/injection, schedule: Q01DX009 (ip), vehicle: saline with Tween-80) is reported as 98 % of control [5 of 6 alive]. For the same compound, the T/C [2] was 97 % of control, the survivor count (dose: 400.0 mg/kg/injection, schedule: Q01DX009 (ip), vehicle: saline with Tween-80) was 3 of 6 and the T/C [3] was 98 % of control.

With CCN(CCCl)CC(O)C(O)C(O)C(O)C=O (stereo unspecified) the T/C (dose: 13.0 mg/kg/injection, schedule: Q01DX Z (ip), vehicle: methylcellulose (MC)) was 106 [5 of 6 alive], 117, 157 % of control, the T/C (dose: 20.0 mg/kg/injection, schedule: Q01DX Z (ip), vehicle: methylcellulose (MC)) was 112, 114, 139 % of control and the T/C (dose: 30.0 mg/kg/injection, schedule: Q01DX Z (ip), vehicle: methylcellulose (MC)) was 102, 110, 156 % of control. For the same compound, the T/C [7] was 108 % of control and the survivor count [7] was 4 of 6 and 5 of 6.

CCOC(=O)NNC(=S)NP(=O)(NC(=S)NNC(=O)OCC)NC(=S)NNC(=O)OCC was tested, and the T/C (dose: 75.0 mg/kg/injection, schedule: Q01DX001 (ip), vehicle: saline) was 91 % of control, the T/C (dose: 150.0 mg/kg/injection, schedule: Q01DX001 (ip), vehicle: saline) was 90 % of control and the survivor count (dose: 300.0 mg/kg/injection, schedule: Q01DX001 (ip), vehicle: saline) was 1 of 6.

O=P1(N(CCCl)CCCl)NC(O)CCO1 (stereo unspecified) was tested, and the T/C (dose: 44.0 mg/kg/injection, schedule: Q04DX002 (ip), vehicle: DMSO) was 168 % of control, the T/C (dose: 67.0 mg/kg/injection, schedule: Q04DX002 (ip), vehicle: DMSO) was 187 % of control and the T/C (dose: 100.0 mg/kg/injection, schedule: Q04DX002 (ip), vehicle: DMSO) was 229 % of control. For the same compound, the T/C (dose: 150.0 mg/kg/injection, schedule: Q04DX002 (ip), vehicle: DMSO) was 172 % of control [2 of 3 alive].

In the case of CCOP(=O)(CCCl)OCC, the T/C (dose: 100.0 mg/kg/injection, schedule: Q01DX001 (ip), vehicle: saline) is reported as 108 % of control [5 of 6 alive], the T/C [8] is reported as 97 % of control and the T/C [4] is reported as 102 % of control. For the same compound, the T/C (dose: 200.0 mg/kg/injection, schedule: Q01DX001 (ip), vehicle: saline) was 105 % of control, the T/C [9] was 101 % of control and the T/C [5] was 109 % of control. For the same compound, the T/C (dose: 400.0 mg/kg/injection, schedule: Q01DX001 (ip), vehicle: saline) was 105 % of control, the T/C [10] was 95 % of control and the T/C [6] was 104 % of control.

CC(=O)N(CCCl)CCCl was tested, and the T/C [8] was 101 % of control, the T/C [4] was 117 % of control and the survivor count [9] was 4 of 6. The T/C [5] was 117 % of control, the survivor count [10] was 0 of 6 and the T/C [6] was 114 % of control.

With NP(=O)(OCCCl)N(CCCl)CCCl (stereo unspecified) the T/C (dose: 62.5 mg/kg/injection, schedule: Q01DX Z (ip), vehicle: saline) was 110 % of control, the T/C (dose: 125.0 mg/kg/injection, schedule: Q01DX Z (ip), vehicle: saline) was 110 % of control and the T/C (dose: 250.0 mg/kg/injection, schedule: Q01DX Z (ip), vehicle: saline) was 109 and 113 % of control. The survivor count (dose: 500.0 mg/kg/injection, schedule: Q01DX Z (ip), vehicle: saline) was 6 of 6 and the survivor count (dose: 750.0 mg/kg/injection, schedule: Q01DX Z (ip), vehicle: saline) was 0 of 6.

In the case of CCCCN(CCCC)P1OCCO1, the T/C (dose: 25.0 mg/kg/injection, schedule: Q04DX003 (ip), vehicle: saline) is reported as 98 % of control, the T/C (dose: 50.0 mg/kg/injection, schedule: Q04DX003 (ip), vehicle: saline) is reported as 103 % of control and the T/C [4] is reported as 98 and 100 % of control. For the same compound, the survivor count [5] was 0 of 6 and the survivor count [6] was 0 of 6.

For COC(=O)C(C)(C)C(OP(C)(=O)OC)=C(C)C (stereo unspecified), the T/C (dose: 5.0 mg/kg/injection, schedule: Q01DX001 (ip), vehicle: saline) was 98 % of control [survivor count not shown].

In the case of CN(C)C(=O)OCC[n+]1cccc(OC(=O)N(C)C)c1, the survivor count [8] is reported as 0 of 6, the survivor count [9] is reported as 0 of 6 and the survivor count [10] is reported as 0 of 6.
